The text below walks through data of PMC8403986.

Amino acid sequences for entries named in this document (tags omitted). A change or cut given only in a name is not applied to a line headed by its entry. Chains listed by the source or under a name are the forms on record and can include a tag or linker.
AXIN1-dStrepII (axis inhibition protein 1, wild type, C-terminal double-StrepII tag) (O15169-2, form named): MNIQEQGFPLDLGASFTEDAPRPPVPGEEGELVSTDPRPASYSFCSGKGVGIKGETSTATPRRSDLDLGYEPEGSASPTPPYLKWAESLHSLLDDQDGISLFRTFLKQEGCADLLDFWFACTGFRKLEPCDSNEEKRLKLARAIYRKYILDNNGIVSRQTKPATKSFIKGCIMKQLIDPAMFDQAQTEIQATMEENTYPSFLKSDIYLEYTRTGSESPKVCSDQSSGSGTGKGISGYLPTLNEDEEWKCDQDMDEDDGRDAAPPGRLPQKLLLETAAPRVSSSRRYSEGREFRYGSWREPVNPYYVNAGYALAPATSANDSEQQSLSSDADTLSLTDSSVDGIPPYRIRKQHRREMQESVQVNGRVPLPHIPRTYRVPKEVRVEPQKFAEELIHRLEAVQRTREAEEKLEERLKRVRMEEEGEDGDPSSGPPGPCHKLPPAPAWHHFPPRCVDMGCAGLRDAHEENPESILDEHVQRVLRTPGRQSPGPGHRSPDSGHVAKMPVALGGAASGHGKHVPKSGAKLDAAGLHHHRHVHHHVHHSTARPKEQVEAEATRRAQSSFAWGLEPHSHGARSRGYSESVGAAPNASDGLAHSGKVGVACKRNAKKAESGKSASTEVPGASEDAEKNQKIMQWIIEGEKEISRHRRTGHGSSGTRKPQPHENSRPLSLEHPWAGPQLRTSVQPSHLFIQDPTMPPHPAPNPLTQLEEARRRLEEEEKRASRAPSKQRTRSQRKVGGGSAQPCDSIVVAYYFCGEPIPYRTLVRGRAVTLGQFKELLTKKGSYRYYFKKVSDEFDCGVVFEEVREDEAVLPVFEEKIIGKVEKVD
UniProt P25054: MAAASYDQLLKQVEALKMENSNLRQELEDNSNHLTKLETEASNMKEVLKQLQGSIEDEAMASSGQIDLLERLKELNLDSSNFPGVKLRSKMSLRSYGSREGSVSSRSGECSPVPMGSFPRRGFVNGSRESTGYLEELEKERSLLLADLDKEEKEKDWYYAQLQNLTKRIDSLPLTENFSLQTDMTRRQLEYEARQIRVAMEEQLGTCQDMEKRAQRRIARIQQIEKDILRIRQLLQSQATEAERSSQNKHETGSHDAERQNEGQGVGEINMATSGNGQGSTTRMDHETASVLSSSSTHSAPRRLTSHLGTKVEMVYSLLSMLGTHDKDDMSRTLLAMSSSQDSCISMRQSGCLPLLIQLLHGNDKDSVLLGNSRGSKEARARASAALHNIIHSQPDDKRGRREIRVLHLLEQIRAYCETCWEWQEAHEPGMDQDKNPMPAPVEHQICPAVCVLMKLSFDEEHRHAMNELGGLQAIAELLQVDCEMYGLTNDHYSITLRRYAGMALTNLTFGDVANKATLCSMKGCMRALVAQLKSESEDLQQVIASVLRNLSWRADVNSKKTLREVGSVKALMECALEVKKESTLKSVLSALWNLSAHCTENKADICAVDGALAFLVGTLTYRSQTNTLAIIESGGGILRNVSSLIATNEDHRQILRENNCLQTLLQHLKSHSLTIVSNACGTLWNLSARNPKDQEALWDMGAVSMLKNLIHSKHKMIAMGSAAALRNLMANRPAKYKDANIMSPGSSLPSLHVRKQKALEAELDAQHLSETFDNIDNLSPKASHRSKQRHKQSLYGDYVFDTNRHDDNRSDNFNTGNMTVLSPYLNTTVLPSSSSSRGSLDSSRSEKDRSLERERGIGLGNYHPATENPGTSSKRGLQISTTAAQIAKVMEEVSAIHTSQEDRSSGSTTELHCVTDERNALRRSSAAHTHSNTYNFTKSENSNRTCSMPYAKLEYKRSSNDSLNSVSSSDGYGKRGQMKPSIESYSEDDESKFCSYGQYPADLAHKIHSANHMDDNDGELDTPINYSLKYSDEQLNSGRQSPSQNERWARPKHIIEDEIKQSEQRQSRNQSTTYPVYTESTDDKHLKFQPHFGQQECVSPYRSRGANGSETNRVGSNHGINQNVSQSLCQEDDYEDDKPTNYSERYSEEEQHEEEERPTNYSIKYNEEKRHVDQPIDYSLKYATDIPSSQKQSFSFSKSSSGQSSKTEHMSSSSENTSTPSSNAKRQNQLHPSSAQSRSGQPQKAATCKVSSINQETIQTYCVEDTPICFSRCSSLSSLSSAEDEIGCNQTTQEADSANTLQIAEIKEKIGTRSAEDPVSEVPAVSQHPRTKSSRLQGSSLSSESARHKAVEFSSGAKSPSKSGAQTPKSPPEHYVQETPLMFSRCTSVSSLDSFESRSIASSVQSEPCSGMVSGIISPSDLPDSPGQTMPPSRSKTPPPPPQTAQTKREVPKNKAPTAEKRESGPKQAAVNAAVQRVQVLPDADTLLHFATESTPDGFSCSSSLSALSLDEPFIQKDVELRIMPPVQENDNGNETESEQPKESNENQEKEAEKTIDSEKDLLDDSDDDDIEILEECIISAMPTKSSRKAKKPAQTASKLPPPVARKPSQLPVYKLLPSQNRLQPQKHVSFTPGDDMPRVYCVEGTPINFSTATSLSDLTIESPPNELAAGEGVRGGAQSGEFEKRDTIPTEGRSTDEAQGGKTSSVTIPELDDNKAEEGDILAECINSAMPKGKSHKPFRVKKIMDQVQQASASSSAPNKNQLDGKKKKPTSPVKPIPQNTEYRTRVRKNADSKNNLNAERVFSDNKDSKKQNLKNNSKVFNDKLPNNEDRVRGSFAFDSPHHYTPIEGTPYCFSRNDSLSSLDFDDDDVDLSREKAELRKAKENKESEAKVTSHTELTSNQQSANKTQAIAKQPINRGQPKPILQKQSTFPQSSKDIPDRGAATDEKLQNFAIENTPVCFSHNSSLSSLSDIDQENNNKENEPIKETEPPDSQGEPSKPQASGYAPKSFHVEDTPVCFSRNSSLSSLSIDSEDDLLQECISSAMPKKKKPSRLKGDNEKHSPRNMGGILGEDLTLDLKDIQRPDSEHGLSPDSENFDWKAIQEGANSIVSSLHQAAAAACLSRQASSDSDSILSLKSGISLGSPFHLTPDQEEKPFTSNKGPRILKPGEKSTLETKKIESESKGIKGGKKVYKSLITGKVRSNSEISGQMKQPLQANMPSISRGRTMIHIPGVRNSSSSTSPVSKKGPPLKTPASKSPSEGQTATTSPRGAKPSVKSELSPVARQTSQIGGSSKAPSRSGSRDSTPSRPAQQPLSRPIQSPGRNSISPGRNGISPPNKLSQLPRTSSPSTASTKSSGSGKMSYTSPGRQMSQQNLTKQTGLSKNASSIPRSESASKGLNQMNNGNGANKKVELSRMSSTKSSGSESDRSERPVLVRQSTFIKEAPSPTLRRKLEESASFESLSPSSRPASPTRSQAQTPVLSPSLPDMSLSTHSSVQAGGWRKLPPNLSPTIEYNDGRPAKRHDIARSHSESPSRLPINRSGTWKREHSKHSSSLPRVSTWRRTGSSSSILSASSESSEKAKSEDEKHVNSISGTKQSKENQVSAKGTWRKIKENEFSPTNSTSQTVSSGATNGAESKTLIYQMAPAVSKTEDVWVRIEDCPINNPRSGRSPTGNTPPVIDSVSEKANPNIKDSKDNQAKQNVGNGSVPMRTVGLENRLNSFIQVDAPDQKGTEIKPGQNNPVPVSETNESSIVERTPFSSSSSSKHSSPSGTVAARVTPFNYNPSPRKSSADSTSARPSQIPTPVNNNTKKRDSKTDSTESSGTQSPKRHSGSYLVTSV
UniProt P35222: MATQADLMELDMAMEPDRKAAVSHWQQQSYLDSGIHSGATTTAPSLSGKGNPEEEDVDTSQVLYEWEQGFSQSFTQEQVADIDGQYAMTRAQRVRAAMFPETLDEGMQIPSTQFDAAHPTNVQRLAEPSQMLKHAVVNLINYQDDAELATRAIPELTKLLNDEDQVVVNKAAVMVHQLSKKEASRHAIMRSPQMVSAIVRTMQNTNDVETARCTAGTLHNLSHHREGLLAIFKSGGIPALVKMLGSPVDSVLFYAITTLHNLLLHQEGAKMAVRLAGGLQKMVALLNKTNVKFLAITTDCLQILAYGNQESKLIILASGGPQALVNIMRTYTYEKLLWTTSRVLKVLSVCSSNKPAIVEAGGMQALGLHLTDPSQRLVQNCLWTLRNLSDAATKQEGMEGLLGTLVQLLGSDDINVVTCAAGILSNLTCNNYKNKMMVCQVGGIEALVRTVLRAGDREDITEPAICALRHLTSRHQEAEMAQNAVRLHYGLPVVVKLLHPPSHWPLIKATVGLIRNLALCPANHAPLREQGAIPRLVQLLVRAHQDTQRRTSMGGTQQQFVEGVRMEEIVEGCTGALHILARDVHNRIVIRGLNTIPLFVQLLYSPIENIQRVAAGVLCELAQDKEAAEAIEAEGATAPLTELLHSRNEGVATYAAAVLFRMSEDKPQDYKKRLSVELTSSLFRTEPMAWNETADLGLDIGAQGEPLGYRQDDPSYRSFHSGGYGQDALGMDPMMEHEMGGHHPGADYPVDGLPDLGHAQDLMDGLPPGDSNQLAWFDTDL

Experiment [1] has as its target AXIN1-dStrepII (axis inhibition protein 1, wild type, C-terminal double-StrepII tag) (human) (UniProt O15169). Nature of the experiment: pull-down; Strep-Tactin Sepharose purification via AXIN1-dStrepII (wild type or M3) from lysates of Sf9 cells co-expressing an APC variant, CK1α, GSK3β and β-catenin; 50 mM HEPES-NaOH pH 7.5, 150 mM NaCl, 4°C, 2 h; SDS-PAGE with Coomassie and immunoblot. In general terms: In western blotting, separated proteins are transferred to a membrane and probed.

Experiment [2] shares this target. In words: mass photometry; SEC-MALS input and elution fractions of the affinity-purified DC, diluted to A280 of about 0.01 (<100 nM); 50 mM HEPES-NaOH pH 7.5, 150 mM NaCl; both purified. On the technique in general: In gel filtration, larger molecules generally elute earlier.
Experiment [3] shares this target. Nature of the experiment: SEC-MALS; affinity-purified DC (wild-type or M3 AXIN1) at several dilutions; WTC-100N5 column; 50 mM HEPES-NaOH pH 7.5, 150 mM NaCl, 2 mM TCEP, 5% glycerol; fractions on SDS-PAGE; both purified.
Experiment [4] shares this target. Nature of the experiment: pull-down; as a1, but Sf9 cells co-expressing AXIN1-dStrepII, CK1α, GSK3β and β-catenin without APC.

No constants are given. Whether binding was seen depends on the method and setting. For some assays here: In cells and extracts the contact can be indirect. Some results given as binding are weak or reduced against the parent protein; the word gives no strength.

In the case of “APC Q1338* (truncation variant from SW480 cells) (from UniProt P25054 1-1337) (domain or fragment)”, the binding entry in experiment [1] is recorded as “binds”.

With “APC S811* (truncation variant from COLO-320DM cells) (from UniProt P25054 1-810) (domain or fragment)”, the binding result in experiment [1] is “binds weakly”.

For the substance “APC T1556* (truncation variant from COLO-205 cells) (from UniProt P25054 1-1555) (domain or fragment)”, the binding entry in experiment [1] was “binds”.

Turning to “AXIN1-dStrepII (axis inhibition protein 1, wild type, C-terminal double-StrepII tag) (from UniProt O15169-2 1-826)”, the binding result in experiment [2] and in experiment [3] was “binds” throughout.

“β-catenin, full length, co-expressed in the destruction complex (from UniProt P35222 1-781)”: the binding entry in experiment [4], in experiment [3] and in experiment [1] was “binds” each time.
